According to the supplement of paper PMC6411743:
± gives the standard deviation of the averaged measurements. The entries are a selection whose mix differs from that of the whole data set.

Amino acid sequences for entries named in this document (tags omitted). A change or cut given only in a name is not applied to a line headed by its entry.
UniProt Q8TAA9: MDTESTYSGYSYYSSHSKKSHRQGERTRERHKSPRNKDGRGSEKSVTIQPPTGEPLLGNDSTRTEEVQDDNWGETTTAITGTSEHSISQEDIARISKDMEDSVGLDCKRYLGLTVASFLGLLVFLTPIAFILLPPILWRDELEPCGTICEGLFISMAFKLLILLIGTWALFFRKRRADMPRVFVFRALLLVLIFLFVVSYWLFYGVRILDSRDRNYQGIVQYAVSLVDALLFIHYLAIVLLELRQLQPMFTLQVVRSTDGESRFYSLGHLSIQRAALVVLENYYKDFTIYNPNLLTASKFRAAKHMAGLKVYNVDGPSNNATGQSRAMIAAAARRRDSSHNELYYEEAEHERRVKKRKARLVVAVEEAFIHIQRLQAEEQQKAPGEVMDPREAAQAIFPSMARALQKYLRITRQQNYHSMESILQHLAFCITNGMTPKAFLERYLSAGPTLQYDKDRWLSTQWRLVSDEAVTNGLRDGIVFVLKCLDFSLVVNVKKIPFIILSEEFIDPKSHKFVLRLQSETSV
UniProt Q8IWY9: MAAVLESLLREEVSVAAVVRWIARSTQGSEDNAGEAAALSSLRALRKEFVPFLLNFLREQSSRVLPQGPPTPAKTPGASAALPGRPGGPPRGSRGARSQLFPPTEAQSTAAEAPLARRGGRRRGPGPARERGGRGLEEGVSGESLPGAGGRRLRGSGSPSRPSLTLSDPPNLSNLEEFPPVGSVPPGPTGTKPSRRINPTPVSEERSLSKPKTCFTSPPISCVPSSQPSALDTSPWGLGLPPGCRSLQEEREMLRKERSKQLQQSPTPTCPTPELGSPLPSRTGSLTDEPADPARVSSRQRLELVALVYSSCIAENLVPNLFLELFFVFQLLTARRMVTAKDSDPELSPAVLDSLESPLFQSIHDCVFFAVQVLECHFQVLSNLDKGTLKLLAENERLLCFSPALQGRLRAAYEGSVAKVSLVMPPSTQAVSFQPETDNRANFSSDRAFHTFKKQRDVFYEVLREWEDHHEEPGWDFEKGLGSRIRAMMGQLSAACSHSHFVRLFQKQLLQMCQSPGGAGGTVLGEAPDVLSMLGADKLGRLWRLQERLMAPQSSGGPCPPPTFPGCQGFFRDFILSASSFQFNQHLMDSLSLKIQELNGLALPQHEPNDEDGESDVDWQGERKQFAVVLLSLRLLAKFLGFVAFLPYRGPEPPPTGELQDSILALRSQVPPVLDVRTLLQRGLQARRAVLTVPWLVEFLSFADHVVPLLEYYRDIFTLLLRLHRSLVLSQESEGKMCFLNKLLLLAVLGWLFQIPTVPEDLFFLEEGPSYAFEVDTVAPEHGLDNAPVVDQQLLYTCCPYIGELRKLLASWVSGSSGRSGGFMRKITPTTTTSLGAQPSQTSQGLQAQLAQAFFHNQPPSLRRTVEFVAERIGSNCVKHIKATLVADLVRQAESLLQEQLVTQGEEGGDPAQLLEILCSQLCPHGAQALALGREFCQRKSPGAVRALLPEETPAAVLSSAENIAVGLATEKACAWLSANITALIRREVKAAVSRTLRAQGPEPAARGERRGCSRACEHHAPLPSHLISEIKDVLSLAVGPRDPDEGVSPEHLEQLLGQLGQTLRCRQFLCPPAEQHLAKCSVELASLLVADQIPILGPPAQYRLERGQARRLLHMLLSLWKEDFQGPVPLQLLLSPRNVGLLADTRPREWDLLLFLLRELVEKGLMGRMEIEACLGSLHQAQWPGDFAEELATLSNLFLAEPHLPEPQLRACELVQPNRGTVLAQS
UniProt Q8IXB1: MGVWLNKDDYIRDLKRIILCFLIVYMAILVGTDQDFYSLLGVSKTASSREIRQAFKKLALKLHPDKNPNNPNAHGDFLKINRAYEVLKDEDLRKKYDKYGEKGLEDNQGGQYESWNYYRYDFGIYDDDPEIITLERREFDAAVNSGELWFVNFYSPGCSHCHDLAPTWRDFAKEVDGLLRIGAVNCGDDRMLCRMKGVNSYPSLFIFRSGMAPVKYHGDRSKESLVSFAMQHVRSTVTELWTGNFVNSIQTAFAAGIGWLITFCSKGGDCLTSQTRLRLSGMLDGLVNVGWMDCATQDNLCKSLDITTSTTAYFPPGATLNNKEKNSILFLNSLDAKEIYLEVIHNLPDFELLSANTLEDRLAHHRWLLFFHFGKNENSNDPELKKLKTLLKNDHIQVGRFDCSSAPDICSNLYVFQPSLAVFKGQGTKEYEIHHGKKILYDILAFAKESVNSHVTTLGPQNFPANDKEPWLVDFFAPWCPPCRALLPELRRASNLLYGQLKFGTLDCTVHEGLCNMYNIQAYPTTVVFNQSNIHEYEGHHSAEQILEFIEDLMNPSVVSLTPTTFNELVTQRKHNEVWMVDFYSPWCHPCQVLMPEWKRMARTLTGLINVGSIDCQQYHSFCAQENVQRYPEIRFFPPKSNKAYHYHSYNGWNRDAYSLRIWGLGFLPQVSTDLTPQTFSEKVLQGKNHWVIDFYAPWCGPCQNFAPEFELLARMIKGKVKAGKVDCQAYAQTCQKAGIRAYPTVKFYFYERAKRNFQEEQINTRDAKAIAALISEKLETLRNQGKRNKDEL
UniProt Q8N465: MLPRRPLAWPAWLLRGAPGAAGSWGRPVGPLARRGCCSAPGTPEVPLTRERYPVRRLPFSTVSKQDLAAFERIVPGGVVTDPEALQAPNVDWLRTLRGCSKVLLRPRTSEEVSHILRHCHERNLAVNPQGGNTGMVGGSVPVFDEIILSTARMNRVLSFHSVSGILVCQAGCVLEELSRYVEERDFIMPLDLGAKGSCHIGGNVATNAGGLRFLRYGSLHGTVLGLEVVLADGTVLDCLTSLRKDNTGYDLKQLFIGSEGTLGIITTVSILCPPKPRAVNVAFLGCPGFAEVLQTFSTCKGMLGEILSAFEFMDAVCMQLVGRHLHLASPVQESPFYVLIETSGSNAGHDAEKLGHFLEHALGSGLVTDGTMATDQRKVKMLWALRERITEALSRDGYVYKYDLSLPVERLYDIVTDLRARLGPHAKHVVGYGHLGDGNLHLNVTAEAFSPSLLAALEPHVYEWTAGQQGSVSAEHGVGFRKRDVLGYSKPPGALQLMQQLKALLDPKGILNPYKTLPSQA
UniProt Q8IXW5, whole entry: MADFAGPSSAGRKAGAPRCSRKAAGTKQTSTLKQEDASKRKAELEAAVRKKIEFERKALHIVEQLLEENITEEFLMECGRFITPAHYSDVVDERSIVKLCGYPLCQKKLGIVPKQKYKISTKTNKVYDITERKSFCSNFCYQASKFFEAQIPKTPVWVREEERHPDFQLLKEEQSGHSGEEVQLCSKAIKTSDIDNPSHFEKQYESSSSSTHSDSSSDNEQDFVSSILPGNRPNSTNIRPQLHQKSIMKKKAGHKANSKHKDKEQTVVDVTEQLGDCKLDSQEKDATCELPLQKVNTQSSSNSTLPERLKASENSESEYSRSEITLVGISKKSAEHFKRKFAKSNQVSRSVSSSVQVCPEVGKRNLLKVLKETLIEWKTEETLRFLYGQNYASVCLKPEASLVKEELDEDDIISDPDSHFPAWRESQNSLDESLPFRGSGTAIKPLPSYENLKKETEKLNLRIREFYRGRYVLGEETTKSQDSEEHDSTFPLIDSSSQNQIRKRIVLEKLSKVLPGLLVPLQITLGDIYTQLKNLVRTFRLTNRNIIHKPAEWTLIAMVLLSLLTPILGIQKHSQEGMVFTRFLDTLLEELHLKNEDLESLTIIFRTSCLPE
UniProt Q8N1G2: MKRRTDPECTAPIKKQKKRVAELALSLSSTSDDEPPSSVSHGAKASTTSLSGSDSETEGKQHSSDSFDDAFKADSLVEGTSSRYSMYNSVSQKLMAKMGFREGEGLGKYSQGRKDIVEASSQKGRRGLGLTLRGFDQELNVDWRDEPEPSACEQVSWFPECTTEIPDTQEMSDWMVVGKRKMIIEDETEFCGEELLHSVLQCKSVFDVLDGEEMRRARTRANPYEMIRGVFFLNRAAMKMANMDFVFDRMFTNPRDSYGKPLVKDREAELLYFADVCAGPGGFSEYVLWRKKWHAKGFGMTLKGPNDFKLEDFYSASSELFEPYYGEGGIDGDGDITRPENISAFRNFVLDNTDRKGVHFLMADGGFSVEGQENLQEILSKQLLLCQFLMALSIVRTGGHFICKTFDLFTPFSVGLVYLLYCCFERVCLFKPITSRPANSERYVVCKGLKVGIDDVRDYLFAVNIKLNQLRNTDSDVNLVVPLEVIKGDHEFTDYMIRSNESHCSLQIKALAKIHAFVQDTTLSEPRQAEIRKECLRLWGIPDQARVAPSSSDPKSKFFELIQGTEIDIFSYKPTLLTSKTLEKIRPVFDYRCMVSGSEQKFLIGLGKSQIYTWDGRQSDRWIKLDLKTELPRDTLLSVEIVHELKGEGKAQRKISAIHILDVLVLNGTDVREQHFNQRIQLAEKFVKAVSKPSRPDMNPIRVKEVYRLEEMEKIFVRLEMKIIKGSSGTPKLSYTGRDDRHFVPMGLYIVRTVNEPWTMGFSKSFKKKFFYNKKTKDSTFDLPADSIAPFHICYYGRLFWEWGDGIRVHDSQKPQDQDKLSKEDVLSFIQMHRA
UniProt Q8NBN3: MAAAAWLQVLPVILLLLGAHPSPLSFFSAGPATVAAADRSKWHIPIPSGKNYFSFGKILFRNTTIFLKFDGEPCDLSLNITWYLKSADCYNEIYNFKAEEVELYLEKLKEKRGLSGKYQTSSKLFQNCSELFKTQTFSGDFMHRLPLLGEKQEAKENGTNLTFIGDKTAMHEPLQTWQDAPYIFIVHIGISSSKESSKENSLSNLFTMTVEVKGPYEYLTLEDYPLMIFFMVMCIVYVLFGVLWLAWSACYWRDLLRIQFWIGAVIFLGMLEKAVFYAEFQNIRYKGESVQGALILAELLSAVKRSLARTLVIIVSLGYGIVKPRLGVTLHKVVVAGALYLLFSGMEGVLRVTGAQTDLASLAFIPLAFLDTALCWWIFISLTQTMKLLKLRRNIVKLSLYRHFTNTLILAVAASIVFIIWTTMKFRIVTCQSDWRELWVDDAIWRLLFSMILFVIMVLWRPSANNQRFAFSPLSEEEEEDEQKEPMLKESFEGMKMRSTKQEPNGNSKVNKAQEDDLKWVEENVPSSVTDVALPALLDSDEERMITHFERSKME

Compound: Nc1ncnc2c1ncn2[C@@H]1O[C@H](COP(=O)(O)OP(=O)(O)OP(=O)(O)O)[C@@H](O)[C@H]1O [adenosine triphosphate]
Assay: NP40-soluble protein abundance relative to vehicle (solubility fold change) (ratio); higher = more soluble protein in presence of ATP
In short: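 Eight concentrations, 0.1 to 10 mM, were tested on Jurkat crude lysate for 10 min at room temperature and then 3 min at 37 °C, in three independent experiments. The lysate was solubilised with 0.8% NP40 and benzonase, ultracentrifuged, and the supernatant TMT-labelled for LC-MS/MS. Each value is the fold change against the detergent-processed vehicle in its own replicate, from vsn-normalised intensities.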

| Target | NP40-soluble protein abundance (concentration: 1mM) | NP40-soluble protein abundance (concentration: 2mM) | NP40-soluble protein abundance (concentration: 4mM) | NP40-soluble protein abundance (concentration: 6mM) | NP40-soluble protein abundance (concentration: 8mM) | NP40-soluble protein abundance (concentration: 10mM) |
| --- | --- | --- | --- | --- | --- | --- |
| UniProt Q8TAA9 and related entries | 1.1 ± 0.17 | 1.1 ± 0.2 | 1.1 ± 0.24 | 1.11 ± 0.29 | 1.07 ± 0.15 | 1.27 ± 0.18 |
| UniProt Q8IWY9 and related entries | 0.974 ± 0.057 | 0.991 ± 0.044 | 0.998 ± 0.036 | 0.93 ± 0.021 | 0.961 ± 0.037 | 0.965 ± 0.044 |
| UniProt Q8IXB1 and related entries | 1.02 ± 0.12 | 0.968 ± 0.082 | 0.983 ± 0.048 | 0.951 ± 0.077 | 1.04 ± 0.083 | 1.01 ± 0.072 |
| D2HGDH (UniProt Q8N465) | 0.959 ± 0.023 | 1.03 ± 0.029 | 0.963 ± 0.038 | 0.983 ± 0.053 | 0.939 ± 0.026 | 0.969 ± 0.039 |
| UniProt Q8IXW5 and related entries | 0.967 ± 0.032 | 0.959 ± 0.011 | 0.975 ± 0.052 | 0.951 ± 0.033 | 0.976 ± 0.056 | 0.992 ± 0.034 |
| UniProt Q8N5N7 and related entries | 1.09 ± 0.23 | 0.96 ± 0.16 | 1.03 ± 0.24 | 1 ± 0.47 | 1.04 ± 0.33 | 0.889 ± 0.23 |
| UniProt Q8N1G2 | 1.03 ± 0.092 | 1.02 ± 0.057 | 1.02 ± 0.038 | 0.975 ± 0.089 | 1.04 ± 0.033 | 1.02 ± 0.033 |
| UniProt Q8NBN3 and related entries | 0.933 ± 0.013 | 0.911 ± 0.027 | 0.899 ± 0.039 | 0.9565 ± 0.0059 | 0.901 ± 0.025 | 0.901 ± 0.014 |

Copied from the list:
Entry of UniProt Q8IXB1 and related entries under NP40-soluble protein abundance (concentration: 2mM): 0.968 ± 0.082
Entry of UniProt Q8IXW5 and related entries under NP40-soluble protein abundance (concentration: 4mM): 0.975 ± 0.052
